Literature values in US12465065B2, “Method of preparing beverages with enhanced sweetness with cyclamate” (The Coca-Cola Company, priority 2017, dated 2025).
For at least one compound, name, drawing or mass did not settle the structure.

Settings: cited from earlier work

SMILES | maximal sucrose equivalence
C=C1C[C@@]23CC[C@H]4[C@@](C)(CCC[C@@]4(C)C(=O)O[C@@H]4O[C@H](CO)[C@@H](O)[C@H](O)[C@H]4O)[C@@H]2CC[C@]1(O[C@@H]1O[C@H](CO)[C@@H](O)[C@H](O[C@@H]2O[C@H](CO)[C@@H](O)[C@H](O)[C@H]2O)[C@H]1O[C@@H]1O[C@H](CO)[C@@H](O)[C@H](O)[C@H]1O)C3 [rebaudioside A, reference compound] | ≤ 10%
C=C1C[C@@]23CC[C@H]4[C@@](C)(CCC[C@@]4(C)C(=O)O[C@@H]4O[C@H](CO)[C@@H](O)[C@H](O[C@@H]5O[C@H](CO)[C@@H](O)[C@H](O)[C@H]5O)[C@H]4O[C@@H]4O[C@H](CO)[C@@H](O)[C@H](O)[C@H]4O)[C@@H]2CC[C@]1(O[C@@H]1O[C@H](CO)[C@@H](O)[C@H](O[C@@H]2O[C@H](CO)[C@@H](O)[C@H](O)[C@H]2O)[C@H]1O[C@@H]1O[C@H](CO)[C@@H](O)[C@H](O)[C@H]1O)C3 [rebaudioside M] | greater than 10%
